Data: the supplement of paper PMC10849652
This is one part of the list.

Protein sequences, listed by entry. Tags and fused reporters are not part of them. Lines headed by an entry give the natural chain unless they say otherwise; changes in a name come on top.
UniProt Q9P2E9: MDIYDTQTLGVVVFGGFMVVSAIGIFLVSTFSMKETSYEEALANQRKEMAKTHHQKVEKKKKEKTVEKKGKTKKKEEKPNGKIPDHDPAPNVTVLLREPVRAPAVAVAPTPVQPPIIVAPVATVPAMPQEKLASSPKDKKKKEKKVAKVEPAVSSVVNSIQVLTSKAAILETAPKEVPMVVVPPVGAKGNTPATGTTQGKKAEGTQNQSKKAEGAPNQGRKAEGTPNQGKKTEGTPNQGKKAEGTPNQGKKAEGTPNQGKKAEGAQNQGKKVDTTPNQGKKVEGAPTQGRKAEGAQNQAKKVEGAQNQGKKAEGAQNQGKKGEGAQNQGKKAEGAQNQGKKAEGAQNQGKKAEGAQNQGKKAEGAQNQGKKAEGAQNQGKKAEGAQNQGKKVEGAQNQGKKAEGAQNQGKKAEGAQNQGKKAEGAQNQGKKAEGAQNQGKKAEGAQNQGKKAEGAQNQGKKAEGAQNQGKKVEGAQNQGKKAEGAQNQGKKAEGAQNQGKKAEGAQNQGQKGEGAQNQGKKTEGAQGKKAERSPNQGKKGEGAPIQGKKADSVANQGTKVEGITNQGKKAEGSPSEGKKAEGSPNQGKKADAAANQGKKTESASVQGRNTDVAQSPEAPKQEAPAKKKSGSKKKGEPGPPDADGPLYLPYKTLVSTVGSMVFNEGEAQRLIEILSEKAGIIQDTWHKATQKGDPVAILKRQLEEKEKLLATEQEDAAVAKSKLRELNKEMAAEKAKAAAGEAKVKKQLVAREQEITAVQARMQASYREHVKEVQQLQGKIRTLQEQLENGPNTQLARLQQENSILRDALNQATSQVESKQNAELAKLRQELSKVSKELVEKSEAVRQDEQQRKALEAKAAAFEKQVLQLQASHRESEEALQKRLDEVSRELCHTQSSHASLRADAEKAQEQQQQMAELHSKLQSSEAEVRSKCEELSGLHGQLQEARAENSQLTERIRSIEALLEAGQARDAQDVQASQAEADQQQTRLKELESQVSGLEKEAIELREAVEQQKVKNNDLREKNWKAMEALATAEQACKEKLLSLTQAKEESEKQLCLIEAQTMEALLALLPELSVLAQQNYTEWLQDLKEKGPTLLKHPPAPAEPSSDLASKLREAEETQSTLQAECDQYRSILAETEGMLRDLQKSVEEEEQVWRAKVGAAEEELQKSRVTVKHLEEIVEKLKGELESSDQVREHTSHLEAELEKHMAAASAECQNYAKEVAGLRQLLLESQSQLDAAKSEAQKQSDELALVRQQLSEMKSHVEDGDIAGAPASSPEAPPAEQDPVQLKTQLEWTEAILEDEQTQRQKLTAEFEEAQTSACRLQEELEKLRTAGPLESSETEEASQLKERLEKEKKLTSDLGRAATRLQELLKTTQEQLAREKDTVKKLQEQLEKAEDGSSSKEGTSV
UniProt Q9H633: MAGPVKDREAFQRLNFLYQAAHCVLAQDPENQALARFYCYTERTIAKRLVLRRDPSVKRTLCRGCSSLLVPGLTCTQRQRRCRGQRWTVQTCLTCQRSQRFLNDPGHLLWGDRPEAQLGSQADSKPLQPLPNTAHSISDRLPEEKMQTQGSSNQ
UniProt P78345: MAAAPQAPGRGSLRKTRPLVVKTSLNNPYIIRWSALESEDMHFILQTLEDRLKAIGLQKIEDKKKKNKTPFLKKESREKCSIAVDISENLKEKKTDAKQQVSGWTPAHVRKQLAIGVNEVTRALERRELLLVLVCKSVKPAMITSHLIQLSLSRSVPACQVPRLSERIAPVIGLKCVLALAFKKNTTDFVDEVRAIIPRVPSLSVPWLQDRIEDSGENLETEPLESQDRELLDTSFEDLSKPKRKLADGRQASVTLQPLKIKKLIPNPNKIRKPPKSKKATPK
UniProt Q9BY42: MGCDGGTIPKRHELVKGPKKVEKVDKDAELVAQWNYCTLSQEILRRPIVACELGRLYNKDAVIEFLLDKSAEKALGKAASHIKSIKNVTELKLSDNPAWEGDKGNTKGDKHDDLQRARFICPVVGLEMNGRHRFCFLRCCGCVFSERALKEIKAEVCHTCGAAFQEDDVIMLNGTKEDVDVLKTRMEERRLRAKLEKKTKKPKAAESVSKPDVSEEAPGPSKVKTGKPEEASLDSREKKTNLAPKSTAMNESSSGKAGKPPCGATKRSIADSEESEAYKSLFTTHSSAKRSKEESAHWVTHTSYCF
UniProt Q92766: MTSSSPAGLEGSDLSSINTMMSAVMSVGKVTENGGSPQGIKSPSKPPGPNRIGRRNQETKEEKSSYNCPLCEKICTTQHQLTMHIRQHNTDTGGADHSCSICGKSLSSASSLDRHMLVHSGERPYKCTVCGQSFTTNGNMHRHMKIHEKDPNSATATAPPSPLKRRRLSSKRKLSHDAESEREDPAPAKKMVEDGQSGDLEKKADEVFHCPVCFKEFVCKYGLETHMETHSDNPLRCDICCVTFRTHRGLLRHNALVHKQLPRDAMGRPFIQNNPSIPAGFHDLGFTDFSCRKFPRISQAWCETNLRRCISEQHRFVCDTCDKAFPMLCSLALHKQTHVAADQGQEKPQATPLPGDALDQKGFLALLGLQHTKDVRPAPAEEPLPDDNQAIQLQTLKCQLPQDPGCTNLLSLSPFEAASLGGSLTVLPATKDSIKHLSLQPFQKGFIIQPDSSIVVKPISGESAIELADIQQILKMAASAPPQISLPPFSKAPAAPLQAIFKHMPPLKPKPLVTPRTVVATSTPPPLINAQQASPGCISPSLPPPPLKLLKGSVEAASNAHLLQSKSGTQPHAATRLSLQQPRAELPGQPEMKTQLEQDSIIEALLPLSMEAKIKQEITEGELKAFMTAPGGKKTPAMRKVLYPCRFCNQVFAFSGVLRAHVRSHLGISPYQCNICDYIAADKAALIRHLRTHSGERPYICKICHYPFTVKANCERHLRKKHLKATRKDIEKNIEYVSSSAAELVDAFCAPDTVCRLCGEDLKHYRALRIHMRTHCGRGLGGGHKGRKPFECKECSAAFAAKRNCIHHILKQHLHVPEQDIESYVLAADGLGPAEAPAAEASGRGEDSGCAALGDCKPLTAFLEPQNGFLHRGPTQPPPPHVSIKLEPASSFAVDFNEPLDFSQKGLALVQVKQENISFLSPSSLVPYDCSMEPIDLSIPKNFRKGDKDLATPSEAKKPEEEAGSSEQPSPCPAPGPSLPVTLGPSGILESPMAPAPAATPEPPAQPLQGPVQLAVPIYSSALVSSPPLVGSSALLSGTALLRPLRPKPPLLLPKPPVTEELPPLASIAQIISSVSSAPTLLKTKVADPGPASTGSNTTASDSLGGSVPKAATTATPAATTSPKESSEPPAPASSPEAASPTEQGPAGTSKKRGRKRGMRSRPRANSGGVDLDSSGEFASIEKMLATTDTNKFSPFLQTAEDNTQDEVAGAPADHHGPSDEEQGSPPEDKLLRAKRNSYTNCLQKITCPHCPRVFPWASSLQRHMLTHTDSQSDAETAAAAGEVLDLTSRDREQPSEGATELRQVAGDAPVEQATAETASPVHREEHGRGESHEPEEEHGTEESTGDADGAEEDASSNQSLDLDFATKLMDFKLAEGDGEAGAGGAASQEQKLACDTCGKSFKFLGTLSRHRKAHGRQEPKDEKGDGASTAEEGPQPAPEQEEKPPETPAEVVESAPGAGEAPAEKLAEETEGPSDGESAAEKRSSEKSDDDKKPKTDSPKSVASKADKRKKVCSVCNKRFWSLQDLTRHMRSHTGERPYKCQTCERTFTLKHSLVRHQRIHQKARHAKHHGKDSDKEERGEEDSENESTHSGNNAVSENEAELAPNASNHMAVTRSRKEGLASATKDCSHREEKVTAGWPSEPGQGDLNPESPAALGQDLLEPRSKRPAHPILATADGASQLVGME
UniProt P04843: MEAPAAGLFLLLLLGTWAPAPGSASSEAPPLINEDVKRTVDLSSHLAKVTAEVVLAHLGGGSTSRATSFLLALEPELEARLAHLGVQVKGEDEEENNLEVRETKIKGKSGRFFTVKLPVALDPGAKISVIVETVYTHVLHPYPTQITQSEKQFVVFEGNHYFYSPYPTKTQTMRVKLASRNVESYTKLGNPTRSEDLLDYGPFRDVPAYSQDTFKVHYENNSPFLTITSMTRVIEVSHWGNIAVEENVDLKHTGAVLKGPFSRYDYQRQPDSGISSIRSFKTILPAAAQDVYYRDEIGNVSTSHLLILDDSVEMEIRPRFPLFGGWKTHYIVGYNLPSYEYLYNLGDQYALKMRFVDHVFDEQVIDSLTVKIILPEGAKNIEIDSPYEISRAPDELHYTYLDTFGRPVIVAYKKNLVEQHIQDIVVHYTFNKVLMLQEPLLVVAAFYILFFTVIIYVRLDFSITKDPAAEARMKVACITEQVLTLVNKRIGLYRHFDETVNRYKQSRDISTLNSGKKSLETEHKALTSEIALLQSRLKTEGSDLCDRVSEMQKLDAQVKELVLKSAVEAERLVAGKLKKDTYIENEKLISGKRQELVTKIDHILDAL
UniProt Q9NQG5: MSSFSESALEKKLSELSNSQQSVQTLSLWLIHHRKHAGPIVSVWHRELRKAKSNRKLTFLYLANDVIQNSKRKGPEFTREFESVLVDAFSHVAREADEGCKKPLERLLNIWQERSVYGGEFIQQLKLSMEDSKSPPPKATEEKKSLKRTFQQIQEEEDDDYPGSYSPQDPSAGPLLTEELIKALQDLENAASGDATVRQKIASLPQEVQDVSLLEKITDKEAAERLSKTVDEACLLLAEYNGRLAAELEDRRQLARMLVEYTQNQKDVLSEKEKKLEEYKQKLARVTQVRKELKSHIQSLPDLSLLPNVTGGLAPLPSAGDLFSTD
UniProt Q9UIY3: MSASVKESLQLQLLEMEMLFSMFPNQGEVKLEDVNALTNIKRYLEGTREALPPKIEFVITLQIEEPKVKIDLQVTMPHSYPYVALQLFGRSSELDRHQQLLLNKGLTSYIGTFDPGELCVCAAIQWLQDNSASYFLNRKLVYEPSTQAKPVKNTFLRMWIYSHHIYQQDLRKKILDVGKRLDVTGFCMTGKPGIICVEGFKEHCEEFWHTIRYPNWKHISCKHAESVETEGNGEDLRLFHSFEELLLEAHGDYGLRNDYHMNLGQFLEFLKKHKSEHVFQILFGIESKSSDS
UniProt Q96T23: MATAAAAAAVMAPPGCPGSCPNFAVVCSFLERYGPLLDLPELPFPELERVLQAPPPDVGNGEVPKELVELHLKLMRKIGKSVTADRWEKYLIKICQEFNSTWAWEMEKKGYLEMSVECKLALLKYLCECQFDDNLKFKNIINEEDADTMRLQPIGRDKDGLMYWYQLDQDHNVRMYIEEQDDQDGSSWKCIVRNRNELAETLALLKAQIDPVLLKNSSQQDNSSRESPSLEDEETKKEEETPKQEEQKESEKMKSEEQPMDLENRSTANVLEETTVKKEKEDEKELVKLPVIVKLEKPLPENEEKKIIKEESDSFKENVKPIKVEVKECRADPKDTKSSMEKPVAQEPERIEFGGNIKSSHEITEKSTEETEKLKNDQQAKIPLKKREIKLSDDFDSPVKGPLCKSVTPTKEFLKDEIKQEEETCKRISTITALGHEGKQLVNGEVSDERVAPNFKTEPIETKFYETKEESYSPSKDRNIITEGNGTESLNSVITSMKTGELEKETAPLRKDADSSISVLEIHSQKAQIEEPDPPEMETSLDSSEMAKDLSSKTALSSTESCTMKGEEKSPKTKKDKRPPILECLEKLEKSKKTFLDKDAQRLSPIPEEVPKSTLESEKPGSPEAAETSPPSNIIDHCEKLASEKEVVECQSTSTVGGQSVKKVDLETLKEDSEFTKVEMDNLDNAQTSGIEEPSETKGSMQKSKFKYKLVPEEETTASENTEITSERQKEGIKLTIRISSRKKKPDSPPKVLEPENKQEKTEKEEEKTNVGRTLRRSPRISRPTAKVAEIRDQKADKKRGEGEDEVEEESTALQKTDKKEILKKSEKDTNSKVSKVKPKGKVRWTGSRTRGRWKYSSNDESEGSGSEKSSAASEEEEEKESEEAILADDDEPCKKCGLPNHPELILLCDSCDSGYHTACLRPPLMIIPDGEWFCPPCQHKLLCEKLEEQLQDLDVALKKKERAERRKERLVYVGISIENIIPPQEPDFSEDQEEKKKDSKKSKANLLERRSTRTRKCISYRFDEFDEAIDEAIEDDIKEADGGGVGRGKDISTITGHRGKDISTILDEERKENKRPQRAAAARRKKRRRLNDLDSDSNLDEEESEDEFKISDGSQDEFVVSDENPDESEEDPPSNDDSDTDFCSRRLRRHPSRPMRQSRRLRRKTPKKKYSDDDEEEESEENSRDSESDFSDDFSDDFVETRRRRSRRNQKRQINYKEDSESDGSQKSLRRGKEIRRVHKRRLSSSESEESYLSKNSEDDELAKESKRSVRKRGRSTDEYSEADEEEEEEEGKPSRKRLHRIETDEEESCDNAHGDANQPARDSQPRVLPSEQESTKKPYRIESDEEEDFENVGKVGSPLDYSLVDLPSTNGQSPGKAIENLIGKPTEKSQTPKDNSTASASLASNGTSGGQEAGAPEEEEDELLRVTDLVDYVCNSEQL

Legend:
Test in all cases: log2 fold change, soluble protein after heating vs DMSO (PISA); higher = thermal stabilisation; K562 lysate, 10 uM; active = over 0.2 and 3.5 SD of the protein, either way, in both replicates (recomputed)
erlotinib = compound: C#Cc1cccc(Nc2ncnc3cc(OCCOC)c(OCCOC)cc23)c1 [erlotinib]
Method in brief: (§1)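 K562 pellets were dounce-homogenised in PBS pH 7.4 containing 1 mM MgCl2, and the crude extract, at 1 mg/mL protein, was exposed to 10 μM compound for 30 min. Aliquots were heated for 3 min across 48°C-58°C, pooled, brought to 0.5% NP-40 at 4°C and spun at 21,000xg for 90 min, with the supernatant taken as soluble protein. TMTpro 16plex LC-MS/MS with equalised channel sums quantified that protein. Values are log-two fold changes in thermal stability relative to solvent controls, taken from duplicates.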

[1] = compound: C/C(=N\NC(=O)C1=CC(=CC=C1)S(=O)(=O)N2CCOCC2)/C3=C(C=CC(=C3)Cl)O
Method in brief: as §1

[2] = compound: C1=CC(=CC=C1C2=NC3=C(N2)C=C(C=C3)C(=O)N)OC4=CC=C(C=C4)Cl
Method in brief: as §1

[3] = compound: C1=CC2=C(C=CC(=C2)/C=C\3/C(=O)NC(=NCC4=CC=CS4)S3)N=C1
Method in brief: as §1

[4] = compound: C1=CC2=NC=CN=C2C=C1/C=C/3\C(=O)NC(=O)S3
Method in brief: as §1

[5] = compound: C1=CC=C(C=C1)C2=NC(=C(N2)C3=CC=NC=C3)C4=CC(=C(C=C4)Cl)O
Method in brief: as §1

[6] = compound: C1=CC=C2C(=C1)C3=NNC4=CC=CC(=C43)C2=O
Method in brief: as §1

[7] = compound: C1CCN(C1)C(=O)NC2=CC=CC(=C2)NC3=NC=C(C(=N3)NCCC4=CN=CN4)Br
Method in brief: as §1

[8] = compound: C1CN(CCC1(CC2=CC=C(C=C2)Cl)N)C3=NC=NC4=C3C=CN4
Method in brief: as §1

IRAK-1-4 Inhibitor I = compound: C1COCCN1CCN2C3=CC=CC=C3N=C2NC(=O)C4=CC(=CC=C4)[N+](=O)[O-] [IRAK-1-4 Inhibitor I]
Method in brief: as §1

Measured: log2 fold change

RSRC1 (UniProt Q96IZ7)
inactive: erlotinib 0.023 | [1] -0.024 | [2] -0.008 | [3] -0.005 | [4] 0.003 | [5] 0.02 | [6] 0.014 | [7] 0.009 | [8] -0.028 | IRAK-1-4 Inhibitor I -0.009

RRBP1 (UniProt Q9P2E9)
inactive: erlotinib -0.021 | [1] 0.001 | [2] -0.031 | [3] 0.02 | [4] 0.003 | [5] -0.012 | [6] -0.004 | [7] 0.012 | [8] -0.021 | IRAK-1-4 Inhibitor I -0.005

RPRD2 (UniProt Q5VT52)
inactive: erlotinib -0.066 | [1] 0.01 | [2] 0.026 | [3] -0.016 | [4] 0.022 | [5] 0.017 | [6] 0.028 | [7] 0.004 | [8] 0.005 | IRAK-1-4 Inhibitor I -0.037

RTN3 (UniProt O95197)
inactive: erlotinib 0.027 | [1] -0.018 | [2] -0.007 | [3] -0.024 | [4] -0.014 | [5] 0.012 | [6] -0.03 | [7] -0.071 | [8] 0.007 | IRAK-1-4 Inhibitor I 0.016

RPP21 isoform 4 (UniProt Q9H633)
inactive: erlotinib -0.049 | [1] 0.029 | [2] -0.063 | [3] 0.004 | [4] -0.032 | [5] 0.053 | [6] -0.064 | [7] 0.02 | [8] 0.017 | IRAK-1-4 Inhibitor I -0.016

RRS1 (UniProt Q15050)
inactive: erlotinib -0.013 | [1] -0.103 | [2] -0.035 | [3] -0.016 | [4] -0.054 | [5] 0.007 | [6] 0.037 | [7] 0.034 | [8] -0.015 | IRAK-1-4 Inhibitor I -0.01

RPS26 (UniProt P62854)
inactive: erlotinib 0.007 | [1] 0.012 | [2] 0.06 | [3] 0.022 | [4] 0.054 | [5] 0.031 | [6] 0.063 | [7] -0.015 | [8] -0.022 | IRAK-1-4 Inhibitor I -0.019

RPLP0 (UniProt P05388)
inactive: erlotinib 0.004 | [1] -0.018 | [2] -0.045 | [3] -0.008 | [4] -0.002 | [5] 0.028 | [6] 0.013 | [7] 0.026 | [8] 0.026 | IRAK-1-4 Inhibitor I 0.035

RPP38 (UniProt P78345)
inactive: erlotinib -0.023 | [1] 0 | [2] -0.012 | [3] -0.058 | [4] -0.027 | [5] 0.008 | [6] -0.021 | [7] -0.017 | [8] -0.001 | IRAK-1-4 Inhibitor I 0.033

RPS26P11 (UniProt Q5JNZ5)
inactive: erlotinib -0.028 | [1] -0.021 | [2] -0.015 | [3] -0.01 | [4] 0.039 | [5] 0.005 | [6] -0.046 | [7] -0.045 | [8] 0.008 | IRAK-1-4 Inhibitor I 0.001

RPSA (UniProt P08865)
inactive: erlotinib 0.025 | [1] -0.057 | [2] -0.004 | [3] -0.033 | [4] -0.011 | [5] -0.009 | [6] -0.062 | [7] -0.002 | [8] 0.005 | IRAK-1-4 Inhibitor I 0.006

RTN4 isoform 5 (UniProt Q9NQC3)
inactive: erlotinib -0.051 | [1] -0.015 | [2] -0.033 | [3] 0 | [4] -0.018 | [5] -0.048 | [6] 0.057 | [7] 0.082 | [8] 0.062 | IRAK-1-4 Inhibitor I 0.066

RTF2 (UniProt Q9BY42)
inactive: erlotinib -0.01 | [1] -0.14 | [2] -0.017 | [3] 0.008 | [4] 0.102 | [5] 0.033 | [6] -0.059 | [7] 0.078 | [8] 0.032 | IRAK-1-4 Inhibitor I -0.01

RREB1 isoform 2 (UniProt Q92766)
inactive: erlotinib -0.015 | [1] -0.257 | [2] -0.02 | [3] -0.057 | [4] -0.123 | [5] -0.018 | [6] 0.063 | [7] -0.01 | [8] 0.06 | IRAK-1-4 Inhibitor I 0

RYBP (UniProt Q8N488)
inactive: erlotinib -0.054 | [1] -0.013 | [2] 0.059 | [3] 0.065 | [4] -0.031 | [5] -0.053 | [6] -0.011 | [7] -0.006 | [8] 0.058 | IRAK-1-4 Inhibitor I -0.023

Looked up one by one from the entries so far (2):
RREB1 isoform 2 (UniProt Q92766)
inactive: erlotinib -0.015 | [1] -0.257 | [2] -0.02 | [3] -0.057 | [4] -0.123 | [5] -0.018 | [6] 0.063 | [7] -0.01 | [8] 0.06 | IRAK-1-4 Inhibitor I 0

RPSA (UniProt P08865)
inactive: erlotinib 0.025 | [1] -0.057 | [2] -0.004 | [3] -0.033 | [4] -0.011 | [5] -0.009 | [6] -0.062 | [7] -0.002 | [8] 0.005 | IRAK-1-4 Inhibitor I 0.006

Continuation:

RPS6KC1 (UniProt Q96S38)
inactive: erlotinib 0.003 | [1] -0.103 | [2] 0.006 | [3] -0.01 | [4] 0 | [5] 0.023 | [6] 0.003 | [7] -0.066 | [8] 0.005 | IRAK-1-4 Inhibitor I -0.004

RPS27L (UniProt Q71UM5)
inactive: erlotinib 0.016 | [1] -0.225 | [2] 0.002 | [3] 0.022 | [4] 0.012 | [5] -0.004 | [6] 0.008 | [7] 0.004 | [8] -0.022 | IRAK-1-4 Inhibitor I -0.007

RSPRY1 (UniProt Q96DX4)
inactive: erlotinib -0.024 | [1] 0.028 | [2] 0.032 | [3] -0.006 | [4] 0.022 | [5] -0.06 | [6] -0.032 | [7] 0.018 | [8] 0.014 | IRAK-1-4 Inhibitor I 0.021

RPS13 (UniProt P62277)
inactive: erlotinib -0.055 | [1] 0.015 | [2] -0.062 | [3] -0.033 | [4] -0.018 | [5] 0.009 | [6] 0.013 | [7] 0.038 | [8] -0.058 | IRAK-1-4 Inhibitor I 0.023

RPL36AL (UniProt Q969Q0)
inactive: erlotinib -0.036 | [1] -0.098 | [2] -0.012 | [3] 0.061 | [4] -0.029 | [5] 0.029 | [6] 0.048 | [7] 0.049 | [8] -0.05 | IRAK-1-4 Inhibitor I -0.109

RRAGA (UniProt Q7L523)
inactive: erlotinib -0.022 | [1] -0.019 | [2] 0.001 | [3] -0.065 | [4] 0.118 | [5] -0.107 | [6] -0.008 | [7] -0.062 | [8] 0.005 | IRAK-1-4 Inhibitor I 0.026

RPS21 (UniProt P63220)
inactive: erlotinib -0.019 | [1] -0.013 | [2] -0.004 | [3] -0.011 | [4] -0.012 | [5] -0.017 | [6] 0.029 | [7] 0.009 | [8] -0.054 | IRAK-1-4 Inhibitor I -0.017

RPRD1A (UniProt Q96P16)
inactive: erlotinib 0.015 | [1] 0 | [2] 0.012 | [3] 0.001 | [4] -0.021 | [5] 0.005 | [6] -0.048 | [7] -0.04 | [8] -0.018 | IRAK-1-4 Inhibitor I -0.022

RPN1 (UniProt P04843)
inactive: erlotinib -0.001 | [1] -0.017 | [2] 0 | [3] 0.004 | [4] 0.004 | [5] -0.003 | [6] -0.02 | [7] -0.022 | [8] 0.02 | IRAK-1-4 Inhibitor I 0.027

RPS5 (UniProt P46782)
inactive: erlotinib 0.009 | [1] 0.071 | [2] 0.003 | [3] -0.001 | [4] -0.03 | [5] -0.02 | [6] -0.026 | [7] 0.009 | [8] -0.029 | IRAK-1-4 Inhibitor I 0.01

RPRD1B (UniProt Q9NQG5)
inactive: erlotinib -0.052 | [1] -0.039 | [2] -0.075 | [3] -0.017 | [4] 0.017 | [5] -0.017 | [6] 0.026 | [7] 0.008 | [8] 0.027 | IRAK-1-4 Inhibitor I -0.034

RWDD2A (UniProt Q9UIY3)
inactive: erlotinib -0.19 | [1] 0.032 | [2] 0.073 | [3] 0.164 | [4] -0.042 | [5] -0.053 | [6] -0.112 | [7] -0.06 | [8] -0.019 | IRAK-1-4 Inhibitor I -0.042

RRP1B (UniProt Q14684)
inactive: erlotinib 0.007 | [1] -0.097 | [2] -0.041 | [3] 0.044 | [4] 0.001 | [5] 0.003 | [6] -0.051 | [7] 0.013 | [8] 0.042 | IRAK-1-4 Inhibitor I -0.028

RSF1 (UniProt Q96T23)
inactive: erlotinib -0.012 | [1] 0.021 | [2] -0.054 | [3] -0.112 | [4] 0.001 | [5] 0.201 | [6] -0.058 | [7] -0.03 | [8] -0.003 | IRAK-1-4 Inhibitor I -0.046

RPL8 (UniProt P62917)
inactive: erlotinib 0.001 | [1] -0.307 | [2] -0.024 | [3] -0.025 | [4] -0.026 | [5] 0.007 | [6] 0.109 | [7] 0.019 | [8] -0.085 | IRAK-1-4 Inhibitor I -0.005
